In patent US12357711B2, “PSMA binding dual mode radiotracer and therapeutic” (Technische Universität München, priority 2019, dated 2025):
Some entries share one result that the patent states for a list of compounds. For at least one compound, name, drawing or mass did not settle the structure.

Tested on: SCID mice
Assay: Preclinical dosimetry from biodistribution in mice, extrapolated to 70-kg Standard Adult (OLINDA/EXM 1.0)
Assay type: in vivo
Settings: for radiation exposure of a clinical scan: injection of up to 370 MBq (10 mCi), 1 h voiding interval
Description: 3-5 mice were injected per timepoint with a mean 25.6±3.6 MBq of 18F-rhPSMA-7 and 28.5±4.8 MBq of 18F-rhPSMA-7.3, respectively. Mice, severe combined immunodeficiency (SCID) were used for the experiments.
Mice were sacrificed at the following timepoints: • ^18F-rhPSMA-7: 10, 20, 40, 60, 120 and 180 minutes after administration. • ^18F-rhPSMA-7.3: 10, 60, 120, 180 and 300 minutes after administration.
Urine, blood, heart, lung, spleen, pancreas, liver, stomach (emptied), small intestine (emptied), large intestine (emptied), kidneys, bladder, testis, fat, muscle (partial, femoral), femur, tail and brain. Urine was collected with a pipette in the CO2 gas chamber. In case of missing urination in the chamber the bladder was aspirated with an insulin syringe. Blood was withdrawn instantly after sacrifice with an insulin syringe from the heart. All other tissues and organs were dissected and transferred directly in plastic containers.
The counting rates of measurement samples were automatically corrected for decay. The radioactivity distribution ratios (unit: percentage of the injected dose (% ID) in the measurement samples were determined using the equation below. The sum of the counting rates from all measurement samples obtained from one mouse was designated as the counting rate for administrated radioactivity.
The radioactivity distribution ratio per unit weight of the measurement sample (unit: % ID/g) excluding urine and feces samples was determined by using the equation below. The weight of the measurement sample was determined by subtraction of the empty measurement container from the container including the sample. […]
In brief, to calculate a human dosimetry from the biodistribution in the mice, an extrapolation was necessary to account for the differences between the animals and humans. Normal-organ radiation doses were estimated for the 70-kg Standard Adult anatomic model using time-depending organ activity concentrations (in percent of the injected dose per gram, % ID/g) and total-body activities measured in the biodistribution studies in mice. […]

| Compound | radiation exposure of a clinical scan | radioactivity distribution ratio in all other assessed tissues (other than kidneys, spleen, bladder) (mice, all examined time points) |
| --- | --- | --- |
| [^19F][^natGa]D/L-Dap-R/S-DOTAGA-rhPSMA7 [rhPSMA7-rac] | less than 5 mSv |  |
| CC(C)(C)[Si](F)(c1ccc(C(=O)NC[C@@H](NC(=O)CC[C@@H](C(=O)O)N2CCN(CC(=O)[O-])CCN(CC(=O)[O-])CCN(CC(=O)[O-])CC2)C(=O)N[C@H](CCCCNC(=O)CCC(=O)NCCC[C@@H](NC(=O)CC[C@H](NC(=O)N[C@@H](CCC(=O)O)C(=O)O)C(=O)O)C(=O)O)C(=O)O)cc1)C(C)(C)C.[Ga+3] [rhPSMA7.3, [^19F][^natGa]D-Dap-S-DOTAGA-rhPSMA7] | less than 5 mSv | lower than 8 % ID/g |
